Binding data for one substance are collected here from paper PMC3715411.

The chains behind the UniProt entries cited, without tags or fusion partners.
UniProt P60766: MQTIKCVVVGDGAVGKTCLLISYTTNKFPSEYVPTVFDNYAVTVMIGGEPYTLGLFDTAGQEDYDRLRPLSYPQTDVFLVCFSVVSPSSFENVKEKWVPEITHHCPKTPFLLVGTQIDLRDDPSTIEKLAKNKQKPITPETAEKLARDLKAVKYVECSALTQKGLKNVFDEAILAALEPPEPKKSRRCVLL

These are yes or no findings as the source states them, for the method shown. Binding seen in cells or lysates may run through a third protein. Where a sequence is shown, tags or fusion partners need not be part of it.

The assay concerns the target T1, Mycobacterium tuberculosis nucleoside diphosphate kinase (Ndk), recombinant, C-terminal 6xHis, on latex beads (Mycobacterium tuberculosis) (UniProt P9WJH7).
T1 sequence: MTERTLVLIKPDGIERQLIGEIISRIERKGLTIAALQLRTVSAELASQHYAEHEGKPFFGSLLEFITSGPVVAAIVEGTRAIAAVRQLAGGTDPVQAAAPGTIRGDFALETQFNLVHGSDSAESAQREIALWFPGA
The assay is described as follows: co-IP; only the target purified.

Take “Cdc42 GTPase, native, of RAW 264.7 macrophages (from UniProt P60766 1-191)”: the binding entry is reported as “no binding”.
